No constants are given. Whether binding was seen depends on the method and setting. For some of these results: Binding can be weak; no strength is given.
Legend:
[1] = molecular target: FIX zymogen (non-activatable FIX) (human); assay: BLI, IgG on AHQ sensor
[2] = molecular target: FIX zymogen (non-activatable FIX) (human); assay: BLI, IgG on AHQ sensor, 100 nM antigen
[3] = molecular target: FIX zymogen (non-activatable FIX) (human); assay: BLI; class meaning: paragraph 914
[4] = molecular target: activated FX which retains the activation peptide (FXa+AP); assay: BLI, antibody on AHQ sensor, 250 nM FX variant
[5] = molecular target: zymogen FIX which contains the activation peptide from FX (FIX+FX AP); assay: BLI, antibody on AHQ sensor, 250 nM FX variant
[6] = molecular target: zymogen FX with the activation peptide lacking (FX-AP); assay: BLI, antibody on AHQ sensor

Binder | binding [1] | binding [2] | binding [3] | binding [4] | binding [5] | binding [6]
BIIB-9-397 (antibody, V domains shown) VH: QVQLQESGPGLVKPSETLSLTCAVSGYSISSGYYWAWIRQPPGKGLEWIGSIYHSGSTYYNPSLKSRVTISVDTSKNQFSLKLSSVTAADTAVYYCARDVWYVGGFDPWGQGTLVTVSS VL: DIQMTQSPSSLSASVGDRVTITCQASQDISNYLNWYQQKPGKAPKLLIYDASNLETGVPSRFSGSGSGTDFTFTISSLQPEDIATYYCQQSDDHPPTFGGGTKVEIK | binds | binds | binds |  |  | 
BIIB-9-578 (antibody, V domains shown) VH: QLQLQESGPGLVKPSETLSLTCTVSGGSISSSSYYWGWIRQPPGKGLEWIGSISYSGSTYYNPSLKSRVTISVDTSKNQFSLKLSSVTAADTAVYYCARDKYQDYSFDIWGQGTMVTVSS VL: DIQMTQSPSSVSASVGDRVTITCRASQGIDSWLAWYQQKPGKAPKLLIYAASSLQSGVPSRFSGSGSGTDFTLTISSLQPEDFATYYCQQANFLPFTFGGGTKVEIK |  | binds | binds |  |  | 

Second part, the binder after the results:

binding [1] | binding [2] | binding [3] | binding [4] | binding [5] | binding [6] | Binder
 | binds | binds |  |  |  | BIIB-9-631 (antibody, V domains shown) VH: QVQLVQSGAEVKKPGASVKVSCKASGYTFTSYYMHWVRQAPGQGLEWMGIINPSGGSTSYAQKFQGRVTMTRDTSTSTVYMELSSLRSEDTAVYYCARAENRGDYEAWGQGTLVTVSS VL: DIQMTQSPSSVSASVGDRVTITCRASQGISRWLAWYQQKPGKAPKLLIYAASSLQSGVPSRFSGSGSGTDFTLTISSLQPEDFATYYCQQRTSFPLTFGGGTKVEIK
 |  |  | binds | binds | no binding (tested: 250 nM) | BIIB-12-917 (antibody, V domains shown) VH: EVQLVQSGAEVKKPGESLKISCKGSGYSFTTYWIGWVRQMPGKGLEWMGIIYPGDSDTRYSPSFQGQVTISADKSISTAYLQWSSLKASDTAMYYCARGRFRPRGRFDYWGQGTLVTVSS VL: EIVMTQSPATLSVSPGERATLSCRASQSVSSNLAWYQQKPGQAPRLLIYGASTRATGIPARFSGSGSGTEFTLTISSLQSEDFAVYYCQQLFNHPPTFGGGTKVEIK
